Test results as given in publication PMC4236683.
These are yes or no findings as the source states them, for the method shown. Some results given as binding are weak or reduced against the parent protein; the word gives no strength. Where a sequence is shown, tags or fusion partners need not be part of it.

Biological target: T1, endogenous Sema5A on mouse hippocampal (dentate gyrus) neurons (mouse (endogenous in primary hippocampal neurons)) (UniProt Q62217)
T1 sequence: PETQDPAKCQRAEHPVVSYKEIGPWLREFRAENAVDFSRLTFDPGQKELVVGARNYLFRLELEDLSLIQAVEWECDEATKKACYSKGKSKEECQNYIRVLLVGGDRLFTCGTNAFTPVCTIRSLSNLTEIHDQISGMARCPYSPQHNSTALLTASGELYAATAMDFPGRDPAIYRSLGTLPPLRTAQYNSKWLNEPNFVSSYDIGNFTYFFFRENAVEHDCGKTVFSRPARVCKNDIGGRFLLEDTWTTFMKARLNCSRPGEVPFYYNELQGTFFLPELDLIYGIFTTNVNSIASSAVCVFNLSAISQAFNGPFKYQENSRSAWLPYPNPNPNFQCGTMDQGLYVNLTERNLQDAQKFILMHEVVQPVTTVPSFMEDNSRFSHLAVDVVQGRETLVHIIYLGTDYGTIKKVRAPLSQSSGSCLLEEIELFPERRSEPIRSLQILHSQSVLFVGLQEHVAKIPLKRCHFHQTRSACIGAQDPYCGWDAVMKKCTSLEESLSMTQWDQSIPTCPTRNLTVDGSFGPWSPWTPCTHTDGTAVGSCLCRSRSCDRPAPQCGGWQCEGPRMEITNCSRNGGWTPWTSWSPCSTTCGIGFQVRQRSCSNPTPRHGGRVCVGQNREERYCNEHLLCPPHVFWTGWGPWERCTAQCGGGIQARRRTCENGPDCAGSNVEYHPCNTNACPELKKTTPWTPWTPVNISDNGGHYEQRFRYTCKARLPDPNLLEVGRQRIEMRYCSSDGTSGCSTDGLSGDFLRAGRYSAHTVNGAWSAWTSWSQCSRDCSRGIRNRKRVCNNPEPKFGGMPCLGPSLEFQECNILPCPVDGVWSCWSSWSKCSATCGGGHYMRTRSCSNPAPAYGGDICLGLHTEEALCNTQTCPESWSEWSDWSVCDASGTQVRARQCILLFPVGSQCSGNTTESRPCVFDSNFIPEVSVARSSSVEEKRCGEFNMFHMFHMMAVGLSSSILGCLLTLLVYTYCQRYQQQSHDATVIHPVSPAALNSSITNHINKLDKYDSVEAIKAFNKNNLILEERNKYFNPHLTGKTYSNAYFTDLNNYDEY
Experiment: binding of AP-clustered Fc fusion protein to primary neurons; non-transfected primary mouse hippocampal neurons of WT and knock-out mice, Fc fusion protein preclustered with anti-human IgG-AP, NeuroBasal medium, NBT/BCIP; only the binder purified

binding: binds
B1: sema domain of PlexA2 fused to Fc (PlexA2^SD-Fc) (Fc fusion, UniProt P70207 35-508)
chain: MPQYSTFHSENRDWTFNHLTVHRRTGAVYVGAINRVYKLTGNLTIQVAHKTGPEEDNKACYPPLIVQPCSEVLTLTNNVNKLLIIDYSENRLLACGSLYQGVCKLLRLDDLFILVEPSHKKEHYLSSVNKTGTMYGVIVRSEGEDGKLFIGTAVDGKQDYFPTLSSRKLPRDPESSAMLDYELHSDFVSSLIKIPSDTLALVSHFDIFYIYGFASGGFVYFLTVQPETPDGMAINSAGDLFYTSRIVRLCKDDPKFHSYVSLPFGCTRAGVEYRLLQAAYLAKPGEALAQAFNISSDEDVLFAIFSKGQKQYHHPPDDSALCAFPIRAINLQIKERLQSCYHGEGNLELNWLLGKDVQCTKAPVPIDDNFCGLDINQPLGGSTPVEGLTLYTTSRDRLTSVASYVYNGYSVVFVGTKSGKLKKIRADGPPHGGVQYEMVSVFKDGSPILRDMAFSINQLYLYVMSERQVTRVPV
